# Measurements taken from patent publication US8617534B2, “Compositions and method for manipulating PIM-1 activity in circulatory system cells” (San Diego State University (SDSU) Foundation, priority 2007, dated 2013).
# Entries after “also recorded” stand apart in the source; their conditions may differ. At least one structure is not confirmed: it was looked up by name or label, or the drawing left a doubt.
# Test system: PIM-1
# Assay: PIM-1 expression in cultured cardiomyocytes (immunoblot, confocal microscopy)
# Assay type: cell-based, rat
# Details: for PIM-1 protein level (immunoblot): 2 hour exposure; for PIM-1 immunoreactivity by confocal microscopy: treatment for 2 hours, compared to control cells
# Protocol: Neonatal Rat Cardiomyocyte Cultures infections and treatments. Neonatal rat cardiomyocyte cultures were prepared as described previously^12. Cells to be subjected to treatments were placed in media with 2% serum overnight and then treated with the appropriate agent and harvested or fixed after the pre-described timepoint. Cardiomyocytes were infected with adenovirus for two hours, washed in PBS and then re-fed M199 with 2% FBS and 50 μg/ml pen/strep, and 100 μM glutamine.
# Immunoblotting. Infected cardiomyocytes were harvested 24 hours after infection in SDS denaturing sample buffer, sonicated and boiled for 10 minutes, and quantitated using the Bradford assay. Mouse whole heart lysates were generated from flash frozen hearts pulverized in a mortar and pestle then resuspended in SDS denaturing sample buffer, sonicated, boiled for 10 minutes and quantitated using Bradford assay. […] Blots were blocked in 3% BSA for 1 hour, and probed with primary antibodies (PIM-1 (Cell Signaling Technology), c-jun (Cell Signaling Technology), HISTONE3™ (Cell Signaling Technology), GFP (Molecular Probes), bcl-2 (Santa Cruz), bcl-XL (Cell Signaling Technology), PHOSPHO-BADS112™ (Biosource) AKT (Cell Signaling Technology), GAPDH (Research Diagnostics Inc.), PHOSPHO-AKTS473™ (Cell Signaling Technology), total PARP (Biosource), cleaved PARP (Biosource), and cleaved caspase3 (Cell Signaling Technologies)) diluted in blocking solution overnight at 4° C. Blots were washed in TBS-0.5% Tween three times and probed with fluorescent or alkaline phosphatase conjugated secondary antibodies diluted 1:5000 in blocking solution for 1 hour at room temperature followed by three washes in TBS-0.5% Tween. […] All quantitation is based on standardization to loading controls.
# Immunohistochemistry. Hearts were fixed and embedded and cardiomyocytes fixed and permeabilized as described previously^12. Staining of cultured neonatal rat cardiomyocytes was performed with antibodies described above diluted 1:25 in PBS containing 10% horse serum overnight at 4° C. Slides were washed in PBS and probed with fluorescent conjugated secondary antibodies (1:100) for one hour at room temperature, and Texas Red phalloidin (1:50 Molecular Probes) to identify actin filaments. Slides were washed three times in PBS, and stained for 30 minutes with TOPRO-3™ (1:5000 Molecular Probes) to identify nuclei, washed once and cover-slipped using […]™ (Vectra Labs). Paraffin embedded samples were cut at 4 μm and deparaffinized through a standard series of Xylene and graded Ethanol steps to water. Antigen retrieval was performed in 10 mM Citrate pH6.0. PIM-1 and phospho-AKT signals were amplified using the TYRAMIDE AMPLIFICATION KIT™ (Perkin Elmer) with primary concentrations of 1:500 for both antibodies, and secondaries 1:3000. Slides were washed following the amplification process, and stained with TOPRO-3 (Molecular Probes) to identify nuclei, washed and cover-slipped with […]™ (Vectra Labs). Confocal imaging of stained slides was performed on a Leica LCS confocal microscope. For comparison purposes, all slides were treated identically and scanned using the same settings in each experiment.
Compound,PIM-1 protein level (immunoblot),PIM-1 immunoreactivity by confocal microscopy
C[C@@H]1C[C@H]2[C@@H]3CCC4=CC(=O)C=C[C@]4(C)[C@@]3(F)[C@@H](O)C[C@]2(C)[C@@]1(O)C(=O)CO [dexamethasone],significantly increased PIM-1 expression; also recorded: Induction is evident,induced PIM-1 immunoreactivity
C=C[C@@]1(C)CC(=O)[C@]2(O)[C@@]3(C)[C@@H](O)CCC(C)(C)[C@@H]3[C@H](O)[C@H](OC(C)=O)[C@@]2(C)O1 [forskolin],little or no increase; also recorded: no discernable effect,not induced
C[C@]12CC[C@@H]3c4ccc(O)cc4CC[C@H]3[C@@H]1CC[C@@H]2O [estradiol],little or no increase; also recorded: did not markedly increase Pim-1 protein expression,not induced
